Results deposited as PubChem BioAssay AID1224830 (NIAID, 2016)
Assay: 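Host factors that control LPS-induced TNF expression in human macrophages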 (primary screen). System: human THP-1 monocytic leukaemia cells, TNF dual-luciferase reporter clone, PMA-differentiated to macrophage-like cells. Reagents: siRNA pool against human genes, 50 nM. Time to read-out: LPS for 4 h, given about 3 days after siRNA transfection. Conditions: bacterial LPS (TLR4 ligand), 10 ng/ml. Measured: 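TNF firefly reporter luminescence divided by renilla, normalised to the plate median, then turned into a robust z-score for each replicate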. Reading the numbers: TNF reporter robust z-score: higher = stronger TNF reporter response to LPS. Rule for the call: 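Each well counts as active if its z-score is over 2.8 or under -1.5; controls are left without a call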.
This is an unselected part of about 18,000 reagents tested. About 2,900 of them (16%) were called active. 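Calls are made per well; low scores hint the gene aids the LPS response, high scores that it dampens it.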 A number with no mark means an inactive call. Repeated entries: four replicate wells of each siRNA pool. Reagent sequences are not shown.

ZSWIM3 (GeneID 140831)
- TNF reporter robust z-score: 0.02

ZSWIM3 (GeneID 140831)
- TNF reporter robust z-score: -0.21

ZSWIM3 (GeneID 140831)
- TNF reporter robust z-score: 0.19

ZSWIM3 (GeneID 140831)
- TNF reporter robust z-score: -0.03

IRAG1 (GeneID 10335)
- TNF reporter robust z-score: 1.53

IRAG1 (GeneID 10335)
- TNF reporter robust z-score: 0.48

IRAG1 (GeneID 10335)
- TNF reporter robust z-score: 8.87 (active)

IRAG1 (GeneID 10335)
- TNF reporter robust z-score: 0.42

MROH9 (GeneID 80133)
- TNF reporter robust z-score: 0.63

MROH9 (GeneID 80133)
- TNF reporter robust z-score: 0.47

MROH9 (GeneID 80133)
- TNF reporter robust z-score: 0.18

MROH9 (GeneID 80133)
- TNF reporter robust z-score: -0.18

TLCD1 (GeneID 116238)
- TNF reporter robust z-score: 0.91

TLCD1 (GeneID 116238)
- TNF reporter robust z-score: -0.37

TLCD1 (GeneID 116238)
- TNF reporter robust z-score: 0.4

TLCD1 (GeneID 116238)
- TNF reporter robust z-score: 0.47

WIPI2 (GeneID 26100)
- TNF reporter robust z-score: -1.59 (active)

WIPI2 (GeneID 26100)
- TNF reporter robust z-score: -1.44

WIPI2 (GeneID 26100)
- TNF reporter robust z-score: -1.46

WIPI2 (GeneID 26100)
- TNF reporter robust z-score: -1.3

CD164L2 (GeneID 388611)
- TNF reporter robust z-score: 0.72

CD164L2 (GeneID 388611)
- TNF reporter robust z-score: 0.86

CD164L2 (GeneID 388611)
- TNF reporter robust z-score: 2.4

CD164L2 (GeneID 388611)
- TNF reporter robust z-score: 2.88 (active)

Quoted from the listing for reference:
ZSWIM3 (GeneID 140831)
- TNF reporter robust z-score: 0.19

ZSWIM3 (GeneID 140831)
- TNF reporter robust z-score: -0.03

IRAG1 (GeneID 10335)
- TNF reporter robust z-score: 1.53

IRAG1 (GeneID 10335)
- TNF reporter robust z-score: 0.48

IRAG1 (GeneID 10335)
- TNF reporter robust z-score: 8.87 (active)

IRAG1 (GeneID 10335)
- TNF reporter robust z-score: 0.42

The list goes on.
PGLYRP3 (GeneID 114771)
- TNF reporter robust z-score: -2.01 (active)

PGLYRP3 (GeneID 114771)
- TNF reporter robust z-score: -2.12 (active)

PGLYRP3 (GeneID 114771)
- TNF reporter robust z-score: -1.58 (active)

PGLYRP3 (GeneID 114771)
- TNF reporter robust z-score: -1.56 (active)

COL6A3 (GeneID 1293)
- TNF reporter robust z-score: 1.1

COL6A3 (GeneID 1293)
- TNF reporter robust z-score: -0.17

COL6A3 (GeneID 1293)
- TNF reporter robust z-score: -0.36

COL6A3 (GeneID 1293)
- TNF reporter robust z-score: 0.1

METTL5 (GeneID 29081)
- TNF reporter robust z-score: 0.88

METTL5 (GeneID 29081)
- TNF reporter robust z-score: 1.69

METTL5 (GeneID 29081)
- TNF reporter robust z-score: 0.93

METTL5 (GeneID 29081)
- TNF reporter robust z-score: 1.54

GTF2E1 (GeneID 2960)
- TNF reporter robust z-score: -0.14

GTF2E1 (GeneID 2960)
- TNF reporter robust z-score: -0.85

GTF2E1 (GeneID 2960)
- TNF reporter robust z-score: -0.46

GTF2E1 (GeneID 2960)
- TNF reporter robust z-score: 0.01

EPB41L5 (GeneID 57669)
- TNF reporter robust z-score: 0.75

EPB41L5 (GeneID 57669)
- TNF reporter robust z-score: 1.84

EPB41L5 (GeneID 57669)
- TNF reporter robust z-score: 0.45

EPB41L5 (GeneID 57669)
- TNF reporter robust z-score: 2.04

TINF2 (GeneID 26277)
- TNF reporter robust z-score: -0.57

TINF2 (GeneID 26277)
- TNF reporter robust z-score: -0.36

TINF2 (GeneID 26277)
- TNF reporter robust z-score: 0.58

TINF2 (GeneID 26277)
- TNF reporter robust z-score: -0.17
